Reference: PMC7136964
Results are given in words; binding and its absence hold for the method and conditions named. In cells and extracts the contact can be indirect. A result given as binding can be weak or reduced; the word gives no strength.

Sequences of proteins named here, by UniProt entry; tags and fusion partners are left off.
UniProt Q96RU2: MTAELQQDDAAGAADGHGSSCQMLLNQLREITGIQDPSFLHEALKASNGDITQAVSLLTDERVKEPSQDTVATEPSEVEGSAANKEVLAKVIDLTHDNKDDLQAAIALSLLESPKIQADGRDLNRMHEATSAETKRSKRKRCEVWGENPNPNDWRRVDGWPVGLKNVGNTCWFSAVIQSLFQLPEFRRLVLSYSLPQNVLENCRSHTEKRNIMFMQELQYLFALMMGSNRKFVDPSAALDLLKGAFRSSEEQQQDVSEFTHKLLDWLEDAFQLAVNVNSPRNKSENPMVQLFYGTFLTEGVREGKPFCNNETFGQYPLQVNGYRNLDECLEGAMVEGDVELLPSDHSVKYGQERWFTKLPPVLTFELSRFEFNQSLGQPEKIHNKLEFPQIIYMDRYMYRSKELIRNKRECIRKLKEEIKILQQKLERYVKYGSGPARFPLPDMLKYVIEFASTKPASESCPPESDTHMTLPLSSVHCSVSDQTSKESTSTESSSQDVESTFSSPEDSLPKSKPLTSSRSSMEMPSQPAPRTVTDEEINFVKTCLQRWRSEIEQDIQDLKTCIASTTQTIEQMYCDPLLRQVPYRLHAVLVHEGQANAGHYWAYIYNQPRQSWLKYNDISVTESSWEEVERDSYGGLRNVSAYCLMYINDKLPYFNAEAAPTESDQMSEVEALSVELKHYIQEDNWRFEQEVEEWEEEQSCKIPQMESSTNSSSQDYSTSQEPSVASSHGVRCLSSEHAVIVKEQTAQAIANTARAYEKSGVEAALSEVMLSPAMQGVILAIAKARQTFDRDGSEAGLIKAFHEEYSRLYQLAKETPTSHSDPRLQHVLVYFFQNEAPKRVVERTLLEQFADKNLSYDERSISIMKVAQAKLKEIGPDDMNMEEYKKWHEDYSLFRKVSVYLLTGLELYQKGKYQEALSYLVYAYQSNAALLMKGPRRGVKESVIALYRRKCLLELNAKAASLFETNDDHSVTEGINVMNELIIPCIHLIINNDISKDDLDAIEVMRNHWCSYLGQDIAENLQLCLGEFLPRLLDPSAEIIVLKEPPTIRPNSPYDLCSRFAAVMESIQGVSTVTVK

Molecular target: HA-tagged USP28 (UniProt Q96RU2)
Assay: co-IP; exogenous tagged proteins in transfected HEK293 cells; RIPA lysate, 500 μg lysate, 1 μg specific antibody, Protein A/G magnetic beads; immunoblot

Substance: FLAG-tagged ∆Np63 (from UniProt Q9H3D4-2)
- binding: binds
